The whole screen tested about 350,000 compounds, of which about 220 (0.063%) were called active. Inconclusive means that the source gave no clear call. Such entries were picked first, then a sample of the others. Calls come from the whole dose curve; as a rule, active = well fitted activation curve with a large enough effect; inconclusive = small, poorly fitted or top-dose-only effect; inactive = no such curve, though single readings can be large or run the other way. Where the call is inconclusive, the potency comes from a doubtful curve fit.
Assay: qHTS for Activators of Integrin-Mediated Alleviation for Muscular Dystrophy; note: nearly all actives have a fitted effect of over 60% in size;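 for activation: 100% = response of the positive control SU9516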
Details: alpha7betagal myoblasts, beta-gal FDG fluorescence, 48 h; activation: at 38.3 µM (top of the series)
In short: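 Alpha7betagal+/- myoblasts (passage 13) were plated 16-24 hr, then exposed to compounds (1:260 dilution of DMSO stock) for 48 hours at 37C. After MPER lysis, β-galactosidase reporter activity was read as FDG fluorescence (ex 480/em 540) after 30 minutes.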
Potency is the fitted concentration of half-maximal effect.

| SMILES | Potency | activation |
| --- | --- | --- |
| C=CCNCC(=O)Nc1sc2c(c1C(=O)Nc1ccc(OC)cc1OC)CCC2 | inconclusive: 1.78 µM [activator, single point] | – |
| Cc1cc(C)cc(OCc2ccc(C(=O)NN)o2)c1 | inconclusive: 10 µM [activator, single point] | – |
| CC(Oc1ccc2c3c(c(=O)oc2c1)CCC3)C(=O)NCc1cccnc1 (stereo not given) | inconclusive: 2.51 µM [activator, partial curve, poor fit] | – |
| O=C(NCc1ccccc1)c1csc(-c2cccnc2)n1 | inconclusive: 8.91 µM [activator, partial curve, poor fit] | – |
| CCOc1ccc(Nc2nc(Cl)nc(NCCO)n2)cc1 | inconclusive: 28.2 µM [activator, single point] | – |
| O=C(Cn1c(-c2ccccn2)nc2ccccc21)N/N=C/c1ccccn1 | inconclusive: 2.51 µM [activator, partial curve, poor fit] | – |
| O=C1C2CCCN2C(c2ccc(F)cc2)N1c1ccc(Cl)cc1 (stereo not given) | inactive | – |
| CN(C)CCNC(=O)COc1ccc(C23CC4CC(CC(C4)C2)C3)cc1 | inactive | – |
| Cc1cc(NC(=O)Nc2ccc(Cl)c(Cl)c2)no1 | inconclusive: 17.8 µM [activator, single point] | – |
| C[C@@H]1CN([C@H](C)CO)C(=O)c2c(c3ccccc3n2C)-c2ccccc2CO[C@H]1CN(C)C(=O)NC1CCCCC1 | inactive | – |
| COCCNC(=S)Nc1ccc(N2CCOCC2)c(S(=O)(=O)Nc2ccccc2OC)c1 | inconclusive: 11.2 µM [activator, single point] | – |
| CC(C)=CCc1c(O)cc2oc3c(CC=C(C)C)c(O)c(O)c(CC=C(C)C)c3c(=O)c2c1O | inactive | – |
| Cc1ccc(NC(=O)Nc2cnccn2)cc1 | inconclusive: 3.16 µM [activator, partial curve, poor fit] | – |
| CCCNC(=S)NC1CC2CCCC(C1)N2Cc1ccc(F)cc1 (stereo not given) | inconclusive: 5.01 µM [activator, single point] | – |
| O=C(CNC(=O)c1ccccc1F)NC1CCN(Cc2ccccc2)CC1 | inconclusive: 2.24 µM [activator, full curve, poor fit] | – |
| COCCCNC(=O)/C(C#N)=C/c1c(N2CCN(c3ccccc3)CC2)nc2c(C)cccn2c1=O | inconclusive: 10 µM [activator, partial curve, poor fit] | – |
| Cc1ccccc1C(=O)N1CCN(S(=O)(=O)c2cccs2)CC1 | inconclusive: 5.01 µM [activator, single point] | – |
| O=S(=O)(NCc1cccnc1)c1ccc(Cl)cc1 | inconclusive: 28.2 µM [activator, single point] | – |
| COc1ccc(-c2nc(CN3CCC(C(=O)N4CCOCC4)CC3)c(C)o2)cc1C | inactive | – |
| O=C(Cc1ccccc1)N/N=C/c1ccc[nH]1 | inconclusive: 5.01 µM [activator, single point] | – |
| O=C(CCNC(=O)c1ccc([N+](=O)[O-])cc1)Nc1cc(Cl)ccc1N1CCOCC1 | inconclusive: 31.6 µM [activator, single point] | – |
| Cc1c(NC(=O)c2cc(-c3ccc(F)cc3)on2)c(=O)n(-c2ccccc2)n1C | inconclusive: 7.08 µM [activator, single point] | – |
| Cc1cc(C(C)(C)C)cc(C)c1C[n+]1ccc2ccccc2c1 | – | inconclusive: -70.4% [activator] |
| NC(=S)n1[nH]c(-c2ccc([N+](=O)[O-])cc2)c(N=Nc2cccc([N+](=O)[O-])c2)c1=O | inactive | – |

| SMILES | Potency | activation |
| --- | --- | --- |
| CSc1ncc(Cl)c(C(=O)Nc2cccc3ccccc23)n1 | inconclusive: 1.26 µM [activator, single point] | – |
| COC(=O)CC/C(O)=C1\C(=O)CC(C)(C)CC1=Nc1ccccc1OC | inactive | – |
| O=C(O)C(Cc1ccc(Cl)cc1)Sc1nc2ccccc2[nH]1 (stereo not given) | inactive | – |
| CC(C)NC(=O)CN1CCC(c2ccccc2)C(O)C1 (stereo not given) | inconclusive: 1.41 µM [activator, single point] | – |
| O=S(=O)(c1ccc(NC2CCCc3ccccc32)nc1)N1CCOCC1 (stereo not given) | inactive | – |
| O=C(C1=C[C@H](c2ccc(C(F)(F)F)cc2)C[C@H](OCc2ccc(CO)cc2)O1)N1CCCCCCC1 | inactive | – |
| CNS(=O)(=O)c1ccc(N2CCCC2=O)c([N+](=O)[O-])c1 | inconclusive: 2.82 µM [activator, single point] | – |
| COc1ccc(-c2nc(N)sc2C2(O)C(=O)Nc3c(Br)cc(F)cc32)cc1OC (stereo not given) | inconclusive: 12.6 µM [activator, single point] | – |
| O=C(c1cccc(-n2cccc2)c1)N1CCN(S(=O)(=O)c2ccc(F)cc2)CC1 | inconclusive: 1.78 µM [activator, partial curve, poor fit] | – |
| COc1ccc(CN(C#N)c2nc(C)cc(C)n2)cc1 | inconclusive: 11.2 µM [activator, single point] | – |
| O=C1CSC(=S)N1N=Cc1ccc(Cl)s1 | inconclusive: 3.16 µM [activator, partial curve, poor fit] | – |
| CS(=O)(=O)N(CC(=O)N1CCN(Cc2ccccc2)CC1)c1ccccc1F | inconclusive: 28.2 µM [activator, single point] | – |
| CN(C)c1cccc(C(=O)Nc2nnc(Cc3ccccc3)s2)c1 | inconclusive: 28.2 µM [activator, single point] | – |
| CC(C)=CC(=O)N1CCC(n2nccc2NC(=O)CCc2ccccc2)CC1 | inconclusive: 1.41 µM [activator, partial curve, poor fit] | – |
| NC(=NCc1ccco1)NC(=O)c1ccc(Cl)cc1 | inactive | – |
| CCCCCC(=O)NC(=S)Nc1ccc2oc(=O)ccc2c1 | inconclusive: 3.16 µM [activator, single point] | – |
| COc1ccc(/C=N/n2cnc3c([nH]c4ccc(F)cc43)c2=O)cc1CN1CCCC1 | inactive | – |
| COC(=O)c1sccc1NC(=O)Nc1cccc(C(C)=O)c1 | inconclusive: 28.2 µM [activator, single point] | – |
| COc1ccc(C2CC(=O)C3=C(C2)NC(C)=C(C#N)C3c2ccc(N(C)C)cc2)cc1 (stereo not given) | inactive | – |
| COc1ccc(S(=O)(=O)N2CCCCCC2)cc1C(=O)NCc1ccc(C)cc1 | inconclusive: 2.24 µM [activator, partial curve, poor fit] | – |
| O=C(c1ccccc1F)c1cc2c(cc1[N+](=O)[O-])OCCO2 | inconclusive: 0.501 µM [activator, full curve, poor fit] | – |
| Cc1ccc(S(=O)(=O)NCC2CCC(C(=O)N3CCN(C)CC3)CC2)cc1 (stereo not given) | inconclusive: 28.2 µM [activator, single point] | – |
| CCCCNC(=S)N=Nc1c(O)[nH]c2ccccc12 | inactive | – |
| O=C(c1ccccc1)c1ccc(OCC(O)CNCc2ccc(Cl)cc2)cc1 (stereo not given) | inactive | – |

| SMILES | Potency | activation |
| --- | --- | --- |
| Cc1ccccc1OCc1nnc(SCC(=O)O)n1-c1ccccc1 | inconclusive: 2.24 µM [activator, partial curve, poor fit] | – |
| Cc1cc(C)c(OCC(=O)Nc2nc3ccccc3[nH]2)c(C)c1 | inactive | – |
| CN(Cc1ccccc1NS(=O)(=O)c1ccc2ccccc2c1)C1CCCCC1 | inconclusive: 2.82 µM [activator, single point] | – |
| COc1ccc(C(=O)n2cnc3ccccc32)cc1Br | inconclusive: 28.2 µM [activator, single point] | – |
| O=C1C(Cc2ccccc2)NC(=S)N1c1ccccc1 (stereo not given) | inactive | – |
| Cn1cccc1C(=O)NC(=O)COC(=O)CNS(=O)(=O)c1ccc(Br)cc1 | inactive | – |
| Fc1ccccc1-c1ccc(/C=N/Nc2nc3ccccc3[nH]2)o1 | inactive | – |
| Cc1ccc(CN(C(=O)c2csnn2)C(C(=O)NC2CCCC2)c2ccco2)cc1 (stereo not given) | inconclusive: 7.08 µM [activator, partial curve, poor fit] | – |
| CC(=O)c1cc2c(cc1NS(=O)(=O)c1cccc(C(=O)O)c1)OCO2 | inconclusive: 14.1 µM [activator, single point] | – |
| COc1ccc(S(=O)(=O)N2CCOCC2)cc1C(=O)Nc1nc2ccccc2s1 | inconclusive: 31.6 µM [activator, single point] | – |
| Cc1cccc([N+](=O)[O-])c1NC(=O)CSc1nnc2ccccn12 | inconclusive: 3.16 µM [activator, single point] | – |
| CCOC(=O)C1C(=O)OC(C)(C)C1C(CC)C(=O)c1ccccc1 (stereo not given) | inconclusive: 3.16 µM [activator, single point] | – |
| O=S(=O)(Cc1ccc(Cl)cc1)c1ncc(CO)n1Cc1ccccc1 | inconclusive: 14.1 µM [activator, single point] | – |
| CN1C(=O)N(C)c2ccc(C=O)c3cccc1c23 | inconclusive: 5.01 µM [activator, single point] | – |
| COCC(=O)N1CCC(n2nccc2NC(=O)CCOc2ccccc2)CC1 | inconclusive: 2.82 µM [activator, single point] | – |
| CC(NC(=O)c1c(Cl)cnn1C)C1CCCO1 (stereo not given) | inconclusive: 2.82 µM [activator, partial curve, poor fit] | – |
| Cc1ccc(C(=O)NC2CCCCCCC2)c(Cl)c1 | inactive | – |
| Cc1nc2ccccc2n1CC(O)Cn1c(C(F)(F)F)nc2ccccc21 (stereo not given) | inactive | – |
| COc1ccccc1N1CC(C)(C)C(=O)N(C(=O)c2ccc(Cl)cc2)C1=S | inactive | – |
| Cn1c(O)c(/C=C2\C=Nc3ccccc32)sc1=Nc1ccc(C(=O)O)cc1 | inconclusive: 3.55 µM [activator, single point] | – |
| CC/C(C)=N\NC(=O)CNC(=O)c1ccc(Cl)cc1Cl | inactive | – |
| Cc1c(NC(=O)c2ccc(NC(=O)C3CC3)cc2)cccc1C(=O)O | inconclusive: 28.2 µM [activator, single point] | – |

6 successive compounds out of the list so far, for reference:

| SMILES | Potency | activation |
| --- | --- | --- |
| CCOC(=O)C1C(=O)OC(C)(C)C1C(CC)C(=O)c1ccccc1 (stereo not given) | inconclusive: 3.16 µM [activator, single point] | – |
| O=S(=O)(Cc1ccc(Cl)cc1)c1ncc(CO)n1Cc1ccccc1 | inconclusive: 14.1 µM [activator, single point] | – |
| CN1C(=O)N(C)c2ccc(C=O)c3cccc1c23 | inconclusive: 5.01 µM [activator, single point] | – |
| COCC(=O)N1CCC(n2nccc2NC(=O)CCOc2ccccc2)CC1 | inconclusive: 2.82 µM [activator, single point] | – |
| CC(NC(=O)c1c(Cl)cnn1C)C1CCCO1 (stereo not given) | inconclusive: 2.82 µM [activator, partial curve, poor fit] | – |
| Cc1ccc(C(=O)NC2CCCCCCC2)c(Cl)c1 | inactive | – |

From PubChem BioAssay AID624291 (National Center for Advancing Translational Sciences (NCATS), 2012)
